According to US20100297623A1:
No constants are given. Whether binding was seen depends on the method and setting. In cells and extracts the contact can be indirect. Some results given as binding are weak or reduced against the parent protein; the word gives no strength.

Protein sequences, listed by entry. Tags and fused reporters are not part of them. Lines headed by an entry give the natural chain unless they say otherwise; changes in a name come on top.
UniProt P49959: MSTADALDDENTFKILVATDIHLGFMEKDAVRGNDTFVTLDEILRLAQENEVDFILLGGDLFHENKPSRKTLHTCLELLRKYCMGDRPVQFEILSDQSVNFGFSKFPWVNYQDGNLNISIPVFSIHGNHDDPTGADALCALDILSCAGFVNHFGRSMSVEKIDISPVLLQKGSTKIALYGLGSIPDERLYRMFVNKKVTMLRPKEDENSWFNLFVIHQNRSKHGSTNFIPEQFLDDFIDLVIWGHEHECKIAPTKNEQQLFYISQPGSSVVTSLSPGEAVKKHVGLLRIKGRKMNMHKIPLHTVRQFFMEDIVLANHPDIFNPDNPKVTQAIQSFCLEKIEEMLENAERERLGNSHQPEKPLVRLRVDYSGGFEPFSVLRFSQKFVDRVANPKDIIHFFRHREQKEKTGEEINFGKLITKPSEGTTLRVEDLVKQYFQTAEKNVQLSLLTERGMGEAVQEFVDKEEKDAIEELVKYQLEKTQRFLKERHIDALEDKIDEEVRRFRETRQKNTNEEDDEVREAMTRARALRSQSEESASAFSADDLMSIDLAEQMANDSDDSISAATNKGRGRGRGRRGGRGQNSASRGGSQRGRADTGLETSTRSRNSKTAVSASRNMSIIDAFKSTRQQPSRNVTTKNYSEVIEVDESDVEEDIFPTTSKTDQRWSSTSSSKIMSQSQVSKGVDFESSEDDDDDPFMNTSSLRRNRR
UniProt Q9BQ15: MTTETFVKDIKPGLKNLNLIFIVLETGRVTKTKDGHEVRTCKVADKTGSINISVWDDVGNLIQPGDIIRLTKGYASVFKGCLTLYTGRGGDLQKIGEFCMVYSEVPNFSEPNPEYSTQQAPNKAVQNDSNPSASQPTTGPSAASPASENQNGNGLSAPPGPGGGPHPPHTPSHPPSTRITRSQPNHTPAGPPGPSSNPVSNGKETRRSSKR

Target: Mre11-Rad50-Nbs1 (MRN) complex (UniProt P49959)
Assay: assay not given; paragraph 116 describes a pull-down on streptavidin beads with biotinylated NBS1

Substance: human ssDNA binding protein 1 (hSSB1) (from UniProt Q9BQ15 1-211)
- binding: binds
